# Primary screen of a compound library

Data taken from ChEMBL document CHEMBL3988442, “University of Dundee, Small-Polar-MMV Screening Library” (2021).

A: 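Whole-cell growth test on Mycobacterium tuberculosis, read after 3 days in glucose-containing 7H9 medium; the read-out is not stated. Tested at 500 µM. The record gives no direction; compounds that gave an IC50 in retests scored well above the rest, so higher reads as more growth inhibition. About 18,000 compounds were tested under these conditions; 7.9% (about 1,400) showed 50% or more at least once.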
B: 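Phenotypic screen: M. tuberculosis growth, cholesterol and DPPC medium, 4 days; the read-out is not stated. Tested at 500 µM. Higher reads as more growth inhibition (inferred: compounds with an IC50 in retests scored well above the rest). Size under these conditions: about 18,000 compounds, about 900 of them at 50% or above in at least one test.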

Each number is a percent effect as filed. How 0% and 100% were set is not recorded. Most values in the screen are low, and negative values occur. The compounds are a random part of those screened.

{"smiles": "Cc1c(C(=O)NCCCn2cncn2)cnn1C", "A": 18.14, "B": 3.881}
{"smiles": "Cn1cnnc1CCNC(=O)c1cc(Cl)c(Cl)n1C", "A": -15.13, "B": -28.45}
{"smiles": "CSCC(C)C(=O)Nc1ccc(CCO)cc1", "stereo": "configuration not stated", "A": 43.11, "B": 31.92}
{"smiles": "CN1CCN(C(=O)Nc2ccccc2Cl)CC1", "A": 10.56, "B": 22.39}
{"smiles": "COc1cccc(CC(=O)N(C)Cc2cnccn2)c1", "A": 22.1, "B": -4.411}
{"smiles": "COc1ccc(CCC(=O)NCC2CCOCO2)cc1", "stereo": "configuration not stated", "A": 2.353, "B": -7.357}
{"smiles": "CCC(O)(CN)c1ccc(Cl)cc1", "stereo": "configuration not stated", "A": 25.55, "B": 6.801}
{"smiles": "CCNC(=O)CN1CCC(Cn2ccnc2C)CC1", "A": 3.216, "B": 10.78}
{"smiles": "CN(C(=O)CC(N)c1ccccc1)c1cccc(F)c1", "stereo": "configuration not stated", "A": 8.001, "B": 7.259}
{"smiles": "Cn1nnnc1SCCNCc1ccc(F)cc1", "A": 21.18, "B": 43.1}
{"smiles": "NC(=O)CC1CCCC1", "A": -3.85, "B": 96.4}
{"smiles": "NCc1cccnc1OC1CCCC1", "A": 29.56, "B": 6.76}
{"smiles": "c1csc(C2CCCCN2)n1", "stereo": "configuration not stated", "A": -9.234, "B": -23.15}
{"smiles": "CNc1cc(-c2cccc(OC)c2)[nH]n1", "A": 5.582, "B": -2.59}
{"smiles": "O=C1CCN(CC(O)c2ccccc2F)CCN1", "stereo": "configuration not stated", "A": -1.123, "B": -9.202}
{"smiles": "CN1CCC(NC(=O)c2c(Br)cnn2C)CC1", "A": 2.787, "B": 10.24}
{"smiles": "O=C(NC1CC1)c1n[nH]c2ccccc12", "A": -12.56, "B": -8.321}
{"smiles": "N#CC1CN(Cc2ccccc2)CCO1", "stereo": "configuration not stated", "A": 20.9, "B": 40}
{"smiles": "CCn1cc(OCCOCC2CCCO2)cn1", "stereo": "configuration not stated", "A": 14.26, "B": 8.804}
{"smiles": "Cc1cc(CSCC(=O)NCc2cccs2)on1", "A": 29.66, "B": 11.33}
{"smiles": "COC(CN)C(C)(C)C", "stereo": "configuration not stated", "A": -9.433, "B": -11.27}
{"smiles": "N[C@H]1CCO[C@@H]1c1cccnc1", "A": -1.356, "B": -0.8666}
{"smiles": "CNC(C)CCNC(=O)c1cc(C)nn1C", "stereo": "configuration not stated", "A": 13.32, "B": -6.727}
{"smiles": "CN(C)c1cc(C(=O)Nc2ccccc2F)ccn1", "A": 80.91, "B": 71.15}
{"smiles": "CNCCCNS(=O)(=O)c1cccc(C)c1C#N", "A": 1.721, "B": 15.66}
{"smiles": "O=C1CNCCN1CCc1ccccc1", "A": -6.512, "B": 18.49}
{"smiles": "CC(C)(C)c1cc(-c2nc3c([nH]2)CCCNC3=O)[nH]n1", "A": 32.87, "B": 7.14}
{"smiles": "CCCNC(=O)NC(=O)COC(=O)c1cnc(C)cn1", "A": 1.533, "B": 1.096}
{"smiles": "COC(=O)n1ncc(C#N)c1N", "A": 8.117, "B": 17.57}
{"smiles": "COCC1=Nc2ccccc2CN1", "A": -2.079, "B": -23.17}
{"smiles": "COc1ccccc1OCC(=O)NC(C)CCN(C)C", "stereo": "configuration not stated", "A": 12.74, "B": -5.975}
{"smiles": "Cc1nc2ccccc2c(NCCOCCO)c1C", "A": -29.89, "B": -56.96}
{"smiles": "CCN(C(=O)NC1CC1)C(C)c1ccncc1", "stereo": "configuration not stated", "A": 15.09, "B": 10.97}
{"smiles": "C=C(C)CNC(=O)NCCn1c(=O)oc2ccccc21", "A": -13.1, "B": -16.92}
{"smiles": "CCCOCC(=O)NCc1ccc(S(C)(=O)=O)cc1", "A": 39.25, "B": 26.5}

The last 2 entries again:

SMILES,A,B
C=C(C)CNC(=O)NCCn1c(=O)oc2ccccc21,-13.1%,-16.92%
CCCOCC(=O)NCc1ccc(S(C)(=O)=O)cc1,39.25%,26.5%